Our source for the binding values is PMC3858360.

Protein sequences, listed by entry. Tags and fused reporters are not part of them. Residues count along the entry.
UniProt Q9Y4I1, residues 1467-1855: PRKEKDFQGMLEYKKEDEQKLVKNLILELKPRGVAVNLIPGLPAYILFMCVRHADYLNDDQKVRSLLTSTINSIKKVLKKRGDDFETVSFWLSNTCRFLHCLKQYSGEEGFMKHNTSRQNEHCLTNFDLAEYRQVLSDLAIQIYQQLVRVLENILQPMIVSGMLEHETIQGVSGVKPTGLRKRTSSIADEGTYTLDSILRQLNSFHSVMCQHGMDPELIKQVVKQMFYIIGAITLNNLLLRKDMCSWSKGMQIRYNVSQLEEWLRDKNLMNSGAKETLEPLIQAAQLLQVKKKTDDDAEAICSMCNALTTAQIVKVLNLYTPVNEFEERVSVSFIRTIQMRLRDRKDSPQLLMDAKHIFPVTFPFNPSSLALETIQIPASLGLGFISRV
UniProt Q9ULV0, residues 1462-1848: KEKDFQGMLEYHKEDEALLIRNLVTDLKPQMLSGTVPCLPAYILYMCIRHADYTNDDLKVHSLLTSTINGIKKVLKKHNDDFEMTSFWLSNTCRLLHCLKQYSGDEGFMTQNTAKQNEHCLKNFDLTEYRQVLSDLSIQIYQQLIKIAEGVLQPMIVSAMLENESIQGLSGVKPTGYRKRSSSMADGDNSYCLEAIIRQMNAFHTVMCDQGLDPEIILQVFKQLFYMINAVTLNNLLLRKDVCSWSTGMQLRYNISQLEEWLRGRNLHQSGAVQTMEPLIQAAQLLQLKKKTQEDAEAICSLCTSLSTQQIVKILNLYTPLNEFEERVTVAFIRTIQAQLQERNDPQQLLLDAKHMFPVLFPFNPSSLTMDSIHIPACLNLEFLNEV
UniProt Q9NQX4, residues 1355-1742: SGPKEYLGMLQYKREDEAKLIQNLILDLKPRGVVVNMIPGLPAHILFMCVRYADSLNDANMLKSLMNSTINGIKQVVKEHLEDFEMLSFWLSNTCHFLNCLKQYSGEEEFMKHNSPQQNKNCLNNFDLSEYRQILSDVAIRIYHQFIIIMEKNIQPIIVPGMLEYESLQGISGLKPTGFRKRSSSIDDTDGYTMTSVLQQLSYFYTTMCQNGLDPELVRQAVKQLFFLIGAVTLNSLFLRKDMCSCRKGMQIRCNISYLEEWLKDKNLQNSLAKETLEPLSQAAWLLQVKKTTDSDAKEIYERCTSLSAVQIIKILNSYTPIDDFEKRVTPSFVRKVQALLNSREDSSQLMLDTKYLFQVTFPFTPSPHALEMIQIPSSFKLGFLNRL

Results are given in words; binding and its absence hold for the method and conditions named.

Holding throughout (assay): SAXS; 1.1 to 14 mg/ml protein in 50 mM Tris pH 7.0 (pH 7.5 for Myo5b and Myo5c GD), 140 mM NaCl, 2 mM DTT, 293 K; both purified
Assay [1] has as its target human Myo5a globular domain, Myo5a (1467–1855) (human) (UniProt Q9Y4I1).
Assay [2] concerns the target human Myo5b globular domain, Myo5b (1462–1849) (human) (UniProt Q9ULV0).
Assay [3] has as its target human Myo5c globular domain, Myo5c (1355–1742) (human) (UniProt Q9NQX4).

For the substance “human Myo5a globular domain, Myo5a (1467–1855) (from UniProt Q9Y4I1 1467-1855) (domain or fragment)”, the binding entry in assay [1] is on record as “no binding (tested: 1.1 to 14 mg/ml)”.

For the substance “human Myo5b globular domain, Myo5b (1462–1849) (from UniProt Q9ULV0 1462-1848) (domain or fragment)”, the binding entry in assay [2] is “no binding (tested: 1.1 to 14 mg/ml)”.

With “human Myo5c globular domain, Myo5c (1355–1742) (from UniProt Q9NQX4 1355-1742) (domain or fragment)”, the binding entry in assay [3] was “no binding (tested: 1.1 to 14 mg/ml)”.
